{
  "source": "the supplement of paper PMC7125110",
  "parents": {"B1": {"name": "glmS ribozyme (parent)", "chain": "AUAAAAGCGCCAGAACUACAGAAAUGUAGUUGACGAGGAGGAGGUUUAUCGAAUUUUCGGCGGAUGCCUCCAAA"}},
  "note": "± gives the standard error. Many of these values have a large error.",
  "data": [
    {"variants_of": "B1", "assay": "KM; higher = weaker cofactor use; RNA array", "settings": "with glucosamine-6-phosphate", "how_it_was_run": "(§1)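 Tiles of sequenced MiSeq chips were imaged over ~14 h at 37 °C. On them, barcoded ribozyme variants had been transcribed in situ by E. coli RNA polymerase and were tracked via a hybridised Cy3 probe while glucosamine-6-phosphate (40 μM to 10 mM) in HEPES/KCl/Mg(OAc)2 buffer flowed in. Per-tile medians, normalised to baseline and to non-cleaving reference variants, were fit to one- or two-exponential decays for kobs, and weighted Michaelis–Menten fits gave kcat and KM.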", "units": {"KM": "µM"}, "values": [
      {"variant": "U54A C58A", "KM": "5450 ± 1700"},
      {"variant": "G44U U65G", "KM": "12800 ± 1400"},
      {"variant": "A52U C68U", "KM": "2080 ± 62"},
      {"variant": "A39U G66U", "KM": "2010 ± 860"},
      {"variant": "A39U U55G", "KM": "1130 ± 760"},
      {"variant": "U65C", "KM": "1690 ± 310"},
      {"variant": "G41U U46C", "KM": "676 ± 50"},
      {"variant": "U54C U57A", "KM": "4630 ± 3800"},
      {"variant": "A53G G62U", "KM": "54.1 ± 47"},
      {"variant": "U46A G66C", "KM": "2150 ± 1300"},
      {"variant": "G40A G66A", "KM": "3050 ± 1800"},
      {"variant": "U46G A48U", "KM": "1370 ± 770"},
      {"variant": "U47C G66A", "KM": "1050 ± 470"},
      {"variant": "A53U U57C", "KM": "1360 ± 210"},
      {"variant": "U49A U55A", "KM": "5970 ± 610"},
      {"variant": "U69A C70U", "KM": "166 ± 84"},
      {"variant": "A53U C67A", "KM": "785 ± 230"},
      {"variant": "U65C G66A", "KM": "3960 ± 2300"},
      {"variant": "C50A U54G", "KM": "314 ± 190"},
      {"variant": "A53G C67G", "KM": "2380 ± 1200"},
      {"variant": "U47A C70U", "KM": "73.5 ± 58"},
      {"variant": "U47G U56C A64G", "KM": "1500 ± 480"},
      {"variant": "U49C C61U", "KM": "114 ± 94"},
      {"variant": "G41U U54G", "KM": "196 ± 120"},
      {"variant": "G41U U54C", "KM": "639 ± 320"},
      {"variant": "U56G A64U", "KM": "4710 ± 2700"},
      {"variant": "U56G A64C", "KM": "1500 ± 420"},
      {"variant": "U56A U65C", "KM": "518 ± 520"},
      {"variant": "U47G A48G", "KM": "504 ± 270"},
      {"variant": "U57A C58G", "KM": "4690 ± 580"},
      {"variant": "U57A C58A", "KM": "573 ± 460"},
      {"variant": "A53G U65G", "KM": "1310 ± 750"},
      {"variant": "G40A U56C", "KM": "2280 ± 720"},
      {"variant": "G41C U56A", "KM": "2730 ± 2200"},
      {"variant": "U55C U56C", "KM": "1590 ± 1000"},
      {"variant": "U55A U57A", "KM": "452 ± 410"},
      {"variant": "G44U A64G", "KM": "1820 ± 1400"},
      {"variant": "U55C C58G", "KM": "11700 ± 1200"},
      {"variant": "A42G C70U", "KM": "1580 ± 870"},
      {"variant": "A42G G43A", "KM": "1440 ± 500"},
      {"variant": "U46C U65G", "KM": "1700 ± 970"}
    ]},
    {"variants_of": "B1", "assay": "self-cleavage kobs at 40 uM GlcN6P; higher = faster cleavage; RNA array", "settings": "with glucosamine-6-phosphate", "how_it_was_run": "as §1", "units": {"self-cleavage kobs at 40 uM GlcN6P": "s⁻¹"}, "values": [
      {"variant": "U45G C68U", "self-cleavage kobs at 40 uM GlcN6P": "1.45e-05 ± 1.2e-05"},
      {"variant": "C11U A15C", "self-cleavage kobs at 40 uM GlcN6P": "1.58e-05 ± 9e-06"},
      {"variant": "A15U U57G C58U C70A", "self-cleavage kobs at 40 uM GlcN6P": "2.88e-05 ± 2.2e-05"},
      {"variant": "A15U A48G U55G C68G C70A", "self-cleavage kobs at 40 uM GlcN6P": "4.59e-05 ± 3.6e-05"},
      {"variant": "G13U A39G U56G", "self-cleavage kobs at 40 uM GlcN6P": "4.04e-05 ± 2.7e-05"},
      {"variant": "A14C G59U C70G", "self-cleavage kobs at 40 uM GlcN6P": "4.05e-05 ± 2.5e-05"},
      {"variant": "A36C C58G C71A", "self-cleavage kobs at 40 uM GlcN6P": "3.91e-05 ± 2.5e-05"},
      {"variant": "G38C C58G C61G C67A", "self-cleavage kobs at 40 uM GlcN6P": "3.89e-05 ± 2.3e-05"},
      {"variant": "G9A C10G U69G", "self-cleavage kobs at 40 uM GlcN6P": "0.000533 ± 0.00027"},
      {"variant": "C50A U57G U65C C70G", "self-cleavage kobs at 40 uM GlcN6P": "2.92e-05 ± 2.8e-05"},
      {"variant": "G44A U45C", "self-cleavage kobs at 40 uM GlcN6P": "2.01e-05 ± 1.1e-05"},
      {"variant": "C16G C34G A39U G66C C70G", "self-cleavage kobs at 40 uM GlcN6P": "3.11e-05 ± 2.5e-05"},
      {"variant": "A14C G32A G38A C50U", "self-cleavage kobs at 40 uM GlcN6P": "3.27e-05 ± 3e-05"},
      {"variant": "A6U U46G C58U C67U C68A", "self-cleavage kobs at 40 uM GlcN6P": "3.41e-05 ± 2.6e-05"},
      {"variant": "U17A A18C C19A A20G A52G U57G C67A", "self-cleavage kobs at 40 uM GlcN6P": "5.02e-05 ± 2.6e-05"},
      {"variant": "A33U G59C C70G", "self-cleavage kobs at 40 uM GlcN6P": "3.08e-05 ± 2.6e-05"},
      {"variant": "C8A C50G U54G C68U", "self-cleavage kobs at 40 uM GlcN6P": "3.5e-05 ± 2.9e-05"},
      {"variant": "U46C U69A", "self-cleavage kobs at 40 uM GlcN6P": "3.56e-05 ± 2.3e-05"},
      {"variant": "C11U G29A C70A", "self-cleavage kobs at 40 uM GlcN6P": "4.75e-05 ± 2.5e-05"},
      {"variant": "A36G A52G C68G", "self-cleavage kobs at 40 uM GlcN6P": "2.27e-05 ± 1.8e-05"},
      {"variant": "C34U C70G", "self-cleavage kobs at 40 uM GlcN6P": "3.25e-05 ± 1.8e-05"},
      {"variant": "G32U A52G C70A", "self-cleavage kobs at 40 uM GlcN6P": "2.69e-05 ± 2.4e-05"}
    ]},
    {"variants_of": "B1", "assay": "self-cleavage kobs at 640 uM GlcN6P; higher = faster cleavage; RNA array", "settings": "with glucosamine-6-phosphate", "how_it_was_run": "as §1", "units": {"self-cleavage kobs at 640 uM GlcN6P": "s⁻¹"}, "values": [
      {"variant": "C11G U46G U54A C68G", "self-cleavage kobs at 640 uM GlcN6P": "4.3e-05 ± 3.1e-05"},
      {"variant": "A12U C50U G63C G66A C67G", "self-cleavage kobs at 640 uM GlcN6P": "4.01e-05 ± 3.2e-05"},
      {"variant": "C10A U47A U57A C70U", "self-cleavage kobs at 640 uM GlcN6P": "4.77e-05 ± 2.5e-05"},
      {"variant": "C11A U56C", "self-cleavage kobs at 640 uM GlcN6P": "2.54e-05 ± 2.1e-05"},
      {"variant": "A36C C58G C71A", "self-cleavage kobs at 640 uM GlcN6P": "0.000104 ± 5.5e-05"},
      {"variant": "A12U U30C G59A G62A C68U", "self-cleavage kobs at 640 uM GlcN6P": "2.33e-05 ± 1.8e-05"},
      {"variant": "C11U G40U C70U", "self-cleavage kobs at 640 uM GlcN6P": "3.92e-05 ± 2.6e-05"},
      {"variant": "A6G C67A", "self-cleavage kobs at 640 uM GlcN6P": "2.31e-05 ± 1.3e-05"},
      {"variant": "A6G C67U", "self-cleavage kobs at 640 uM GlcN6P": "0.00401 ± 0.0029"},
      {"variant": "C8U G32U U46G C50G C70U", "self-cleavage kobs at 640 uM GlcN6P": "3.79e-05 ± 2e-05"},
      {"variant": "U56G A64U", "self-cleavage kobs at 640 uM GlcN6P": "2.22e-05 ± 2.1e-05"},
      {"variant": "A6U C50U C68G C71A", "self-cleavage kobs at 640 uM GlcN6P": "9.64e-05 ± 4.9e-05"},
      {"variant": "G13C U54A", "self-cleavage kobs at 640 uM GlcN6P": "3.19e-05 ± 1.7e-05"},
      {"variant": "C8U U69A", "self-cleavage kobs at 640 uM GlcN6P": "3.29e-05 ± 2.5e-05"},
      {"variant": "C11G A14U C70U", "self-cleavage kobs at 640 uM GlcN6P": "3.26e-05 ± 2.4e-05"},
      {"variant": "C11U G29A C70A", "self-cleavage kobs at 640 uM GlcN6P": "4.26e-05 ± 3e-05"},
      {"variant": "A6C A12C", "self-cleavage kobs at 640 uM GlcN6P": "2.11e-05 ± 1.3e-05"},
      {"variant": "C10A C50U C68A", "self-cleavage kobs at 640 uM GlcN6P": "3.25e-05 ± 3.1e-05"}
    ]},
    {"variants_of": "B1", "assay": "self-cleavage kobs at 2500 uM GlcN6P; higher = faster cleavage; RNA array", "settings": "with glucosamine-6-phosphate", "how_it_was_run": "as §1", "units": {"self-cleavage kobs at 2500 uM GlcN6P": "s⁻¹"}, "values": [
      {"variant": "A15U A48G U55G C68G C70A", "self-cleavage kobs at 2500 uM GlcN6P": "3.27e-05 ± 2.9e-05"},
      {"variant": "C10A U47A U57A C70U", "self-cleavage kobs at 2500 uM GlcN6P": "4.26e-05 ± 2.8e-05"},
      {"variant": "A53U C67A", "self-cleavage kobs at 2500 uM GlcN6P": "0.0077 ± 0.0048"},
      {"variant": "C50A U54G", "self-cleavage kobs at 2500 uM GlcN6P": "2.13e-05 ± 1.3e-05"},
      {"variant": "A6G C67A", "self-cleavage kobs at 2500 uM GlcN6P": "4.49e-05 ± 2.7e-05"},
      {"variant": "A6G C67U", "self-cleavage kobs at 2500 uM GlcN6P": "4.39e-05 ± 2.6e-05"}
    ]},
    {"variants_of": "B1", "assay": "self-cleavage kobs at 10000 uM GlcN6P; higher = faster cleavage; RNA array", "settings": "with glucosamine-6-phosphate", "how_it_was_run": "as §1", "units": {"self-cleavage kobs at 10000 uM GlcN6P": "s⁻¹"}, "values": [
      {"variant": "A36C C58G C71A", "self-cleavage kobs at 10000 uM GlcN6P": "2.88e-05 ± 1.5e-05"},
      {"variant": "G38C C58G C61G C67A", "self-cleavage kobs at 10000 uM GlcN6P": "2.19e-05 ± 1.9e-05"},
      {"variant": "C16G C34G A39U G66C C70G", "self-cleavage kobs at 10000 uM GlcN6P": "2.68e-05 ± 2.1e-05"},
      {"variant": "C50A U54G", "self-cleavage kobs at 10000 uM GlcN6P": "1.96e-05 ± 1.5e-05"},
      {"variant": "C8U U69A", "self-cleavage kobs at 10000 uM GlcN6P": "0.000654 ± 0.0006"},
      {"variant": "A36G A52G C68G", "self-cleavage kobs at 10000 uM GlcN6P": "1.82e-05 ± 1.7e-05"}
    ]},
    {"variants_of": "B1", "assay": "self-cleavage kobs at 160 uM GlcN6P; higher = faster cleavage; RNA array", "settings": "with glucosamine-6-phosphate", "how_it_was_run": "as §1", "units": {"self-cleavage kobs at 160 uM GlcN6P": "s⁻¹"}, "values": [
      {"variant": "U47G U56C A64G", "self-cleavage kobs at 160 uM GlcN6P": "2.52e-05 ± 2.2e-05"}
    ]}
  ]
}
